The record followed here is article PMC2747018.

The chains behind the UniProt entries cited, without tags or fusion partners. Where a name states a change or a piece, a line headed by the entry shows the natural chain unless it says otherwise. A line that says so, or that is headed by a name, gives the form on record, which may keep a tag or linker.
U1-70k isoform 2 (human (endogenous in HeLa)) (P08621, form named): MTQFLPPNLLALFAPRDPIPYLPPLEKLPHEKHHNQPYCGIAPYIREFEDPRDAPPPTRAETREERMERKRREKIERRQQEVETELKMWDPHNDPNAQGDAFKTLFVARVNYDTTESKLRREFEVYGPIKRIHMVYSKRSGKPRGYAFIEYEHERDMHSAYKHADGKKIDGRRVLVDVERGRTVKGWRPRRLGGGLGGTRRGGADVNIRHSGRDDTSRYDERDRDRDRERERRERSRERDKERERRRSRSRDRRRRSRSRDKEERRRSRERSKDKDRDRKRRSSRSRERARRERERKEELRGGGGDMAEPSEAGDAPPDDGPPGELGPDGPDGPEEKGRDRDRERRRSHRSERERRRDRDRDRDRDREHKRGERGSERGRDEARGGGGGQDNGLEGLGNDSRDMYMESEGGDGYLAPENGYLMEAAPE
UniProt P62316: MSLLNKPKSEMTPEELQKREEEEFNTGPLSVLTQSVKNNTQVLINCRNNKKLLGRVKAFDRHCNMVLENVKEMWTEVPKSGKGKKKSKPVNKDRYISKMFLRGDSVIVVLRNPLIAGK
UniProt P09234: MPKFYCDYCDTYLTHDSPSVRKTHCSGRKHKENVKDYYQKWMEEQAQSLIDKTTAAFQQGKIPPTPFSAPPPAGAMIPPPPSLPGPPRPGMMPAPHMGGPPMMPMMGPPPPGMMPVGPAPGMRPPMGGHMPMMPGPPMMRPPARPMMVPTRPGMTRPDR

Results are given in words; binding and its absence hold for the method and conditions named. Some entries that bind do so weakly or less than the wild type.

For assay [1], the target named is U1-70k isoform 2 (human (endogenous in HeLa)) (UniProt P08621). Nature of the assay: native MS; sub-complexes of the U1 snRNP purified from HeLa cells, formed by gas-phase activation or in solution (15% n-butanol and/or 128-150 mM ammonium acetate); U1 snRNA is present in all dissociation products.
For assay [2] the target is unchanged. Kind of assay: native MS; ratio of the U1-70k isoforms in stripped complexes after gas-phase loss of Sm-B/B' or U1-C from the HeLa U1 snRNP at lower activation energy (collision cell 100 V), 200 mM ammonium acetate; at high activation (160 V) the ratio stays as in the intact complex.

Regarding Sm-D2 (from UniProt P62316 1-118), in assay [1], the binding result is listed as “binds”.

On to “U1-C protein of the native human U1 snRNP (from UniProt P09234 1-159)”, for which the binding entry in assay [2] is on record as “binds”.
